Test results reported in patent US20100323974A1.
These are yes or no findings as the source states them, for the method shown. For part of these data: Binding seen in cells or lysates may run through a third protein. Some binding calls cover weakened binding; strength is not graded here.

By UniProt entry, the sequences of proteins in these tests, tags left out. Where a name states a change or a piece, a line headed by the entry shows the natural chain unless it says otherwise.
UniProt P09874: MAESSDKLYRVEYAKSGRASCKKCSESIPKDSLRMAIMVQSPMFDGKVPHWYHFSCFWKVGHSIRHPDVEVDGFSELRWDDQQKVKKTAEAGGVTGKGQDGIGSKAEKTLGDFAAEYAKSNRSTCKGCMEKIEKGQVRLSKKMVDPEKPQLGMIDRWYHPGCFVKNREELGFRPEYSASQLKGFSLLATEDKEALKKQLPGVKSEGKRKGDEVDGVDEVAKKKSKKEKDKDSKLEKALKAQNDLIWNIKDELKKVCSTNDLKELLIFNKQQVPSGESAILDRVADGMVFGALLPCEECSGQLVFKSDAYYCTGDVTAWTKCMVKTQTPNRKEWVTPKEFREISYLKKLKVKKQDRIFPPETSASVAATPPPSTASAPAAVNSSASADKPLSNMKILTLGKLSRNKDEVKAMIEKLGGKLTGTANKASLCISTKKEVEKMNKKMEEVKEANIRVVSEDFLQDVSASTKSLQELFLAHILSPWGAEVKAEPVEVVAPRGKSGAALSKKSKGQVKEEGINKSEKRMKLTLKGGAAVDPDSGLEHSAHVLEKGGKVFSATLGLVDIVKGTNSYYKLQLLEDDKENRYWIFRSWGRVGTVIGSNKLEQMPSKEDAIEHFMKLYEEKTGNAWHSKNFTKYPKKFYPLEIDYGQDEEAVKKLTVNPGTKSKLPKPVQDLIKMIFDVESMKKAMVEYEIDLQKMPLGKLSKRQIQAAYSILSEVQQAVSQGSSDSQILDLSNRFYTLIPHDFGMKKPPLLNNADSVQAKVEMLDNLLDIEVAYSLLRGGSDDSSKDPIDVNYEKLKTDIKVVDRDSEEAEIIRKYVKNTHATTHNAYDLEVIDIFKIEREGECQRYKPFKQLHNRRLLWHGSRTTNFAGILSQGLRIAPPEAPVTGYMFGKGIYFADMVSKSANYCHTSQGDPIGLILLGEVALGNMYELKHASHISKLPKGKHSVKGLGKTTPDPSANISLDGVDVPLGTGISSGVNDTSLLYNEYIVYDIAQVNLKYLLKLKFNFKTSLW
UniProt O75367: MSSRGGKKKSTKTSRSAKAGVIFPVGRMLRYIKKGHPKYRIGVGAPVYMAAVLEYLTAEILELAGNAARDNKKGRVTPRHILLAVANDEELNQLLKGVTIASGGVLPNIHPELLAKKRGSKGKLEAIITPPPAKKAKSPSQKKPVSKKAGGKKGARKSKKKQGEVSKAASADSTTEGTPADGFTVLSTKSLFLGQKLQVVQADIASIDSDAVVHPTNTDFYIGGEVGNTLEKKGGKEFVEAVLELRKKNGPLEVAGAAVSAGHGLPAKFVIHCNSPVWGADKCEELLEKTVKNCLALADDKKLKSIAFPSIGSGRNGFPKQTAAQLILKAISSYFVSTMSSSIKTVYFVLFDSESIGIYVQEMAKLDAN

Assays:
[1] = target: Human recombinant PARP-1 (ALEXIS) (Human) (UniProt P09874); assay: GST pull-down, PBS with 100 mM KCl and 0.02% NP40, anti-PARP-1 immunoblot
[2] = target: e-mH2A1.1 nucleosome complex (macroH2A1.1 histone with N-terminal double HA and double Flag epitope tags, in mononucleosomes purified from HeLa cells) (human) (UniProt O75367); assay: silver stained gel of the purified complex and glycerol gradient fractions
[3] = target: e-mH2A1.1 nucleosome complex (macroH2A1.1 histone with N-terminal double HA and double Flag epitope tags, in mononucleosomes purified from HeLa cells) (human) (UniProt O75367); assay: tagged nucleosome complexes isolated at 150 mM NaCl, silver stained SDS-PAGE, PARP-1 relative to histone H1
[4] = target: e-mH2A1.1 nucleosomes with a triple tagged version of mH2A1.1 (FLAG-HA-HIS) (human) (UniProt O75367); assay: FLAG-HA purified mononucleosomes on a hydroxyl apatite column, 0.65 M NaCl wash, 2M NaCl elution, SDS-PAGE
[5] = target: e-mH2A1.1 nucleosome complex (macroH2A1.1 histone with N-terminal double HA and double Flag epitope tags, in mononucleosomes purified from HeLa cells) (human) (UniProt O75367); assay: 15-35% glycerol gradient of the purified complex, fractions on 4-12% SDS PAGE

Substance	binding [1]	binding [2]	binding [3]	binding [4]	binding [5]
GST-NHR (GST fused to the non histone region of macroH2A1.1) (from UniProt O75367 121-369)	binds	–	–	–	–
GST-macroH2A1.1 (from UniProt O75367 1-369)	binds	–	–	–	–
poly(ADP-ribose) polymerase I (PARP-1), native, co-purified from HeLa cells (from UniProt P09874 2-1014)	–	binds	binds	binds	binds
